This is an account of results in PMC11612773 (2024).

Results are given in words; binding and its absence hold for the method and conditions named. In cells and extracts the contact can be indirect. Some results given as binding are weak or reduced against the parent protein; the word gives no strength. Where a sequence is shown, tags or fusion partners need not be part of it.

Assay [1] deals with T1, LEA14 (LATE EMBRYOGENESIS ABUNDANT PROTEIN 14, dehydrin, At2G21490) split-YFP fusion (Arabidopsis thaliana) (UniProt Q96261).
T1 sequence: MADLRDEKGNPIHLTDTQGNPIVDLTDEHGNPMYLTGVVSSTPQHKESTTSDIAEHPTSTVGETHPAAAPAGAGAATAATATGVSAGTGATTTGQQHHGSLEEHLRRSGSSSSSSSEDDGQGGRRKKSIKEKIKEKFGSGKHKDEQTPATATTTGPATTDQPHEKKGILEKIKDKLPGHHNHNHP
In words: split reporter; split YFP Venus fusions, transient expression in Nicotiana benthamiana leaves by Agrobacterium infiltration, leaf disks viewed up to 5 days.

Assay [2] deals with T1, LEA14 (LATE EMBRYOGENESIS ABUNDANT PROTEIN 14, dehydrin, At2G21490) split-YFP fusion (Arabidopsis thaliana). Put plainly: split reporter; split YFP Venus fusions (LEA14y:LEA14fp), stable transformation of Arabidopsis thaliana, embryos viewed.

B1: PLASTID-ENCODED RNA POLYMERASE-ASSOCIATED PROTEIN 12 (PAP12, AT5G24314) split-YFP fusion (protein, UniProt Q8VZV9 33-161)
chain: CGIQRDDNGRRVWRRRTLTKKDDMLRYKMQRVPFVEEQVRKIREVGKVMTMDIEQLLLREDNRFEFVNSVAAEATEYVDKNRDEYGGSKKAIFHVLSNRVNDLGFDRPEAYVEADPYKPGPGYLLEYYT
On to B1, for which the binding result in assay [1] is reported as “no binding”.

B2: …OPEPTIDE REPEAT PROTEIN 596 (PPR596, AT1G80270) split-YFP fusion (protein, UniProt Q9C977 70-596)
chain: SDQEEDDLEDGFSELEGSKSGQGSTSSDEDEGKLSADEEEEEELDLIETDVSRKTVEKKQSELFKTIVSAPGLSIGSALDKWVEEGNEITRVEIAKAMLQLRRRRMYGRALQMSEWLEANKKIEMTERDYASRLDLTVKIRGLEKGEACMQKIPKSFKGEVLYRTLLANCVAAGNVKKSELVFNKMKDLGFPLSGFTCDQMLLLHKRIDRKKIADVLLLMEKENIKPSLLTYKILIDVKGATNDISGMEQILETMKDEGVELDFQTQALTARHYSGAGLKDKAEKVLKEMEGESLEANRRAFKDLLSIYASLGREDEVKRIWKICESKPYFEESLAAIQAFGKLNKVQEAEAIFEKIVKMDRRASSSTYSVLLRVYVDHKMLSKGKDLVKRMAESGCRIEATTWDALIKLYVEAGEVEKADSLLDKASKQSHTKLMMNSFMYIMDEYSKRGDVHNTEKIFLKMREAGYTSRLRQFQALMQAYINAKSPAYGMRDRLKADNIFPNKSMAAQLAQGDPFKKTAISDILD
Regarding B2, the binding result in assay [1] is on record as “binds”.

B3: LEA14 (LATE EMBRYOGENESIS ABUNDANT PROTEIN 14, dehydrin, At2G21490) split-YFP fusion (protein, UniProt Q96261 1-185)
chain: MADLRDEKGNPIHLTDTQGNPIVDLTDEHGNPMYLTGVVSSTPQHKESTTSDIAEHPTSTVGETHPAAAPAGAGAATAATATGVSAGTGATTTGQQHHGSLEEHLRRSGSSSSSSSEDDGQGGRRKKSIKEKIKEKFGSGKHKDEQTPATATTTGPATTDQPHEKKGILEKIKDKLPGHHNHNHP
As for B3, the binding result in assay [1] and in assay [2] was “binds” throughout.

B4: SEED STORAGE ALBUMIN 4 (SESA4, AT4G27170) split-YFP fusion (protein, UniProt P15460 22-166)
chain: SVYRTVVEFDEDDASNPIGPIQKCQKEFQQDQHLRACQRWMRKQMWQGRGGGPSLDDEFDMEDDIENPQRRQLLQKCCSELRQEEPVCVCPTLRQAAKAVRFQGQQHQPEQVRKIYQAAKYLPNICKIQQVGVCPFQIPSIPSYY
With B4, the binding entry in assay [1] is reported as “binds”.
